The whole screen tested about 310,000 compounds, of which about 17,000 (5.5%) were called active. The inconclusive results got no clear call from the source; some entries with a clear call stand among them for comparison. Calls follow the shape of the dose curve; as a rule, active = well fitted inhibition curve with a large enough effect; inconclusive = small, poorly fitted or top-dose-only effect, or effect the other way; inactive = no such curve, though single readings can be large or run the other way. Potencies of inconclusive entries are doubtful fits and often do not repeat.
biological target: Nuclear receptor ROR-gamma (Mus musculus) (UniProt P51450); assay: qHTS for inhibitors of ROR gamma transcriptional activity; details: Drosophila S2 Gal4-RORgamma UAS-luciferase reporter, 20 h; activity change, negative = inhibition: at 53.6 µM (top of the series); also: nearly all actives have a fitted effect of over 60% in size
How it was run: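 Luciferase reporter read in Schneider cells carrying Gal4-RORγ (mouse) and UAS-Photinus luciferase; cells given compound 1 h before 700 uM copper sulfate induction, then incubated 20 h at ambient temperature.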
% is scaled to controls: 0 for no effect and ±100 for the full control effect; potency is read from the fitted curve at half-maximal effect.

By UniProt entry, the sequences of proteins in these tests, tags left out. Where a name states a change or a piece, a line headed by the entry shows the natural chain unless it says otherwise.
UniProt P51450: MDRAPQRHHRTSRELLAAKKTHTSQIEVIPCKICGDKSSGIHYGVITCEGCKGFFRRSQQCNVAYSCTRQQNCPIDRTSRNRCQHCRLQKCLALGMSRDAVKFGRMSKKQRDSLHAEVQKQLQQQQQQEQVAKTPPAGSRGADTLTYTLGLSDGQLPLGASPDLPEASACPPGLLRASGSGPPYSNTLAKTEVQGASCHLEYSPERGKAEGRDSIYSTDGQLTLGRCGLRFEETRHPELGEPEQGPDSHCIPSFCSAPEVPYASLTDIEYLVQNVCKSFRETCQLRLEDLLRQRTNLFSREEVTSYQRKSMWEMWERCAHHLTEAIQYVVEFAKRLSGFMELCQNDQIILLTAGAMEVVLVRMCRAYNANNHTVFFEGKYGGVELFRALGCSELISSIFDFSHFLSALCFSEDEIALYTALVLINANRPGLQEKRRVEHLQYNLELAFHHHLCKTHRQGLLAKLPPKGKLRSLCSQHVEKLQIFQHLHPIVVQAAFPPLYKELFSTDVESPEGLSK

| Structure (SMILES) | Potency | activity change, negative = inhibition |
| --- | --- | --- |
| N/C(=N\NC(=O)c1cccs1)c1cc2cc(Cl)ccc2oc1=O | inconclusive: 12.6 µM [inhibitor, single point] | – |
| O=C(CSc1nc2ccc(Cl)cc2[nH]1)Nc1ccc2c(c1)CCC2 | inconclusive: 35.5 µM [inhibitor, single point] | – |
| COc1ccccc1N1CCN(CC(=O)c2ccc3ccn(C(C)=O)c3c2)CC1 | inconclusive: 35.5 µM [inhibitor, single point] | – |
| COC(=O)c1ccc(N2CCN(c3ccccc3)CC2)c(NC(=O)C2CC2)c1 | – | inactive: 3.58% |
| O=C(c1cccc(Cl)c1)N1CCCc2ccccc21 | – | inactive: 0.74% [at 1.91 µM] |
| COc1ccc(-c2noc(CN(C)C(=O)c3ccoc3C)n2)cc1 | inconclusive: 15.8 µM [activator, single point] | – |
| O=c1n(Cc2ccc(Cl)cc2)c2sc3c(c2c2ncnn12)CCCC3 | inconclusive: 35.5 µM [inhibitor, single point] | – |
| COC(=O)c1cnn(-c2ccccc2)c1/C=N/NC(=S)Nc1ccc(Cl)cc1 | active: 0.447 µM | – |
| CN(Cc1ccccc1)C(=S)NC(=O)c1cccs1 | active: 0.316 µM | – |
| CN(C)C(=O)COC(=O)c1ccccc1Nc1ccc(SC(F)F)cc1 | inconclusive: 5.62 µM [activator, single point] | – |
| CC(C)S(=O)(=O)c1csc(C(=O)NN)c1Cl | active: 10 µM | – |
| O=c1cc(-c2ccccc2)nc2nc(-c3ccccc3)[nH]n12 | inconclusive: 0.501 µM [activator, full curve, poor fit] | – |
| Cc1cccc(N=C2NC(=O)/C(=C/C=C/c3ccco3)S2)c1 | inconclusive: 17.8 µM [inhibitor, single point] | – |
| CCOc1ccc(C(=O)NC(C(=O)NCC2CCCO2)C(C)C)cc1 (stereo not given) | – | inactive: 19.8% |
| Cc1cc(/C=C2\C(=N)N3N=CSC3=NC2=O)c(C)n1Cc1ccccc1 | inconclusive: 10 µM [inhibitor, partial curve] | – |
| O=C(NNC(=O)C1CCN(Cc2ccc(F)cc2Cl)CC1)Nc1ccc([N+](=O)[O-])cc1 | – | inactive: -1.7% |
| COc1cc(NC(=S)N2CCN(C(c3ccccc3)c3ccccc3)CC2)cc(OC)c1 | active: 4.47 µM | – |
| COC(=O)[C@@]1(Cc2ccc(F)cc2)[C@H]2c3cc(C(=O)N(C)C)n(Cc4ccc(C)c(F)c4F)c3C[C@H]2CN1C(=O)c1ccccc1 | – | inactive: 14.7% |
| Cc1cc(Cl)c2ccccc2n1 | – | inactive: -19.7% |
| O=C(Cc1c(F)cccc1Cl)Nc1ncc([N+](=O)[O-])s1 | inconclusive: 14.1 µM [inhibitor, single point] | – |
| CC(/C=N/NC(=O)Cn1cnc2ccccc21)=C\c1ccccc1 | inconclusive: 20 µM [activator, single point] | – |
| Cc1cc(C)c(SCCc2ccncc2)c(C)c1 | inconclusive: 22.4 µM [inhibitor, single point] | – |
| Cc1nc2ccc(NC(=S)N3CCCC3)cc2nc1C | – | inactive: 2.36% |
| CC1CN(S(=O)(=O)c2cccc(C(=O)OC(C)C(=O)NC3CCCCC3C)c2)CC(C)O1 (stereo not given) | – | inactive: 3.32% |
| COC(=O)c1oc2ccccc2c1NC(=O)c1ccccc1O | – | inactive: -0.231% |

Single entries from above:
activity change, negative = inhibition, `CCOc1ccc(C(=O)NC(C(=O)NCC2CCCO2)C(C)C)cc1` (stereo not given) is entered as inactive: 19.8%
activity change, negative = inhibition, `CC1CN(S(=O)(=O)c2cccc(C(=O)OC(C)C(=O)NC3CCCCC3C)c2)CC(C)O1` (stereo not given) is entered as inactive: 3.32%
Potency, `COC(=O)c1cnn(-c2ccccc2)c1/C=N/NC(=S)Nc1ccc(Cl)cc1` is entered as active: 0.447 µM

Next part.

| Structure (SMILES) | Potency | activity change, negative = inhibition |
| --- | --- | --- |
| Cc1ccc(/C=N/Nc2ncc(Cl)cc2Cl)s1 | active: 4.47 µM | – |
| COc1ccc(Oc2nc(-c3ccccn3)nc3ccccc23)cc1 | active: 0.398 µM | – |
| O=C1Nc2ccc([N+](=O)[O-])cc2OC1CCN1CCN(Cc2ccc3c(c2)OCO3)CC1 (stereo not given) | inconclusive: 35.5 µM [activator, single point] | – |
| COc1ccc(-c2nc3cnc(N4CCNCC4)nc3n(-c3ccccc3)c2=O)cc1 | – | inactive: -18.2% |
| CC1CC1C(=O)Nc1cc(S(=O)(=O)N2CCOCC2)ccc1N1CCCC1 (stereo not given) | – | inactive: 2.31% |
| COc1ccc(C(=O)N/N=C/c2sc(N3CCOCC3)nc2-c2ccccc2)cc1OC | active: 2.82 µM | – |
| O=C(CCN=C1NS(=O)(=O)c2ccccc21)N1CCc2ccccc2C1 | – | inactive: 33.8% |
| O=C(Cc1ccc(NC2=NC3CS(=O)(=O)CC3S2)cc1)NCCc1ccccc1 (stereo not given) | – | inactive: -0.56% |
| CC(C)(C)c1nc2ccccc2c2nnc(SCC(=O)Nc3nc4ccccc4s3)n12 | inconclusive: 11.2 µM [inhibitor, single point] | – |
| CSc1nc2ccccc2cc1/C=C(\C#N)c1ccc(Cl)c(Cl)c1 | – | inactive: 3.73% |
| C[C@@H](NC(=O)/C(C#N)=C/c1ccc(O)c(O)c1)c1ccccc1 | inconclusive: 12.6 µM [inhibitor, partial curve] | – |
| O=c1cc(N2CCN(Cc3ccccc3)CC2)[nH]c(=O)n1Cc1ccc(F)cc1 | inconclusive: 25.1 µM [activator, single point] | – |
| CCCCC1=CC2=CC(=O)C(C)(OC(=O)CC)C(=O)C2=CN1Cc1ccccc1 (stereo not given) | inconclusive: 35.5 µM [activator, single point] | – |
| CCOc1ccc(C(C(=O)NC2CCCCC2)N(CCOC)C(=O)c2snc(C(N)=O)c2N)cc1 (stereo not given) | inconclusive: 20 µM [activator, single point] | – |
| C=CCNC(=S)Nc1sc2c(c1C(=O)OCC)CC(C(C)C)OC2 (stereo not given) | active: 5.01 µM | – |
| Cc1nn(-c2ccccc2)c(N2CCCC2)c1/C=N/O | – | inactive: 19% |
| COc1ccccc1Nc1n[nH]c(=S)s1 | active: 10 µM | – |
| COc1ccc(-c2c(C)c3ccc(OCC(C)=O)cc3oc2=O)cc1 | inconclusive: 14.1 µM [activator, partial curve] | – |
| O=C(NCCCN1CCOCC1)c1ccccc1N1C(=O)[C@@H]2Cc3c([nH]c4ccccc34)C(c3ccc(F)cc3)N2C1=O (stereo not given in full) | – | inactive: 17.3% |
| Cc1cccc(C)c1NCc1nnc(SCC(=O)Nc2nc(-c3ccccc3)cs2)n1-c1ccccc1 | – | inactive: 18.1% |
| CC1CN(C(=O)c2ccccc2)C(=Nc2cccc(S(=O)(=O)N(C)C)c2)S1 (stereo not given) | inconclusive: 14.1 µM [activator, partial curve] | – |
| O=C1N(Cc2cccnc2)C[C@@H]2C[C@@H](c3ccc4nsnc4c3)N3CCC[C@@]123 | – | inactive: 18.8% |
| O=[N+]([O-])c1cc(Cc2ccccc2)cc(C=Nc2ccc(N3CCOCC3)cc2)c1O | inconclusive: 15.8 µM [inhibitor, single point] | – |
| Cc1ccc(C)c(NC(=O)CSc2n[nH]c(-c3ccccn3)n2)c1 | active: 6.31 µM | – |
| Cc1cnc(NC(=O)c2cc3c(C)nn(Cc4ccccc4Cl)c3s2)s1 | active: 3.55 µM | – |

| Structure (SMILES) | Potency | activity change, negative = inhibition |
| --- | --- | --- |
| O=C(NCc1ccccn1)c1ccc(NS(=O)(=O)c2ccccc2)cc1 | – | inactive: 40.5% |
| CCN(CC)CC#CCC(O)(c1ccccc1)C1CCCC1 (stereo not given) | inconclusive: 2.51 µM [activator, full curve, poor fit] | – |
| S=c1[nH]nc(-c2cccnc2)n1/N=C/c1cccs1 | inconclusive: 35.5 µM [inhibitor, single point] | – |
| NS(=O)(=O)c1ccc(NC(=O)COC(=O)C23CC4CC(CC(C4)C2)C3)cc1 | inconclusive: 22.4 µM [inhibitor, single point] | – |
| COc1cccc(NC(=S)NNC(=O)Cn2nc(C(F)F)cc2C(F)F)c1 | active: 1.12 µM | – |
| COc1ccc(C(=O)Nc2cc(Cl)ccc2OC(=O)c2ccc(OC)cc2)cc1 | – | inactive: -6.08% |
| CC(=O)C(Sc1ncnc2sc3c(c12)CCCC3)C(C)=O | active: 11.2 µM | – |
| CCC(C)NC(=O)C1CCN(C(=O)COc2ccc3c4c(c(=O)oc3c2C)CCCC4)CC1 (stereo not given) | – | inactive: -5.54% |
| COc1ccccc1N(C)S(=O)(=O)c1ccc(C(=O)NCc2ccc3c(c2)OCO3)cc1 | – | inactive: -6.76% |
| Cc1nc(NC(C)C)c2cnn(CCc3ccccc3)c2n1 | inconclusive: 10 µM [activator, partial curve] | – |
| CCCN1CNC(=S)N(c2ccccc2OC)C1 | inconclusive: 20 µM [inhibitor, single point] | – |
| COc1ccc(/C=C/C(=O)Nc2cccc(C(C)=O)c2)cc1 | active: 3.16 µM | – |
| CC(=O)/C(=N\Nc1ccc(Cl)cc1)Sc1nnc(-c2ccccc2)n1-c1ccccc1 | active: 6.31 µM | – |
| Cc1ccc(C(=O)OCC(=O)NCc2cccs2)c(C)c1 | – | inactive: 11% |
| O=C(/C=C/Nc1ccc(S(=O)(=O)Nc2ncccn2)cc1)c1ccc(Cl)c(Cl)c1 | inconclusive: 11.2 µM [activator, single point] | – |
| Cc1nn(C)c(C(=O)Nc2ccn(Cc3ccccc3F)n2)c1[N+](=O)[O-] | inconclusive: 8.91 µM [activator, partial curve, poor fit] | – |
| N#Cc1ccc(COc2cccc3cccnc23)cc1 | active: 10 µM | – |
| COC(=O)c1ccc(NC(=O)CCN2C(=O)C3C4CCC(C4)C3C2=O)cc1 (stereo not given) | inconclusive: 6.31 µM [inhibitor, single point] | – |
| CC(=O)c1ccc(NC(=O)c2ccc3snnc3c2)cc1 | inconclusive: 6.31 µM [activator, single point] | – |
| Cc1ccnc(N/C=C/C(=O)c2ccc(Br)cc2)c1 | inconclusive: 4.47 µM [inhibitor, full curve, poor fit] | – |
| CCc1ccccc1NC(=O)Nc1cccs1 | inconclusive: 12.6 µM [inhibitor, single point] | – |
| O=C(CSc1nc2ccccc2c(=O)n1-c1ccc(SC(F)F)cc1)Nc1ccc(N2CCOCC2)cc1 | inconclusive: 35.5 µM [inhibitor, single point] | – |
| O=C(CNC(=O)[C@@H]1Cc2ccccc2CN1)NC1CCCCC1 | – | inactive: -15.9% |
| COc1ccc(NC(=O)CN(c2cc(C)cc(C)c2)S(=O)(=O)c2c(C)noc2C)cc1 | inconclusive: 17.8 µM [activator, single point] | – |
| OC1(c2ccc(OC(F)F)cc2)CSC(=Nc2cccnc2)N1C1CC1 (stereo not given) | inconclusive: 35.5 µM [inhibitor, single point] | – |
